Test results reported in article doi:10.1101/2020.03.29.20041962.
These are yes or no findings as the source states them, for the method shown. For some assays here: In cells and extracts the contact can be indirect. Some binding calls cover weakened binding; strength is not graded here.

The chains behind the UniProt entries cited, without tags or fusion partners. Residues count along the entry.
UniProt O00187, residues 16-686: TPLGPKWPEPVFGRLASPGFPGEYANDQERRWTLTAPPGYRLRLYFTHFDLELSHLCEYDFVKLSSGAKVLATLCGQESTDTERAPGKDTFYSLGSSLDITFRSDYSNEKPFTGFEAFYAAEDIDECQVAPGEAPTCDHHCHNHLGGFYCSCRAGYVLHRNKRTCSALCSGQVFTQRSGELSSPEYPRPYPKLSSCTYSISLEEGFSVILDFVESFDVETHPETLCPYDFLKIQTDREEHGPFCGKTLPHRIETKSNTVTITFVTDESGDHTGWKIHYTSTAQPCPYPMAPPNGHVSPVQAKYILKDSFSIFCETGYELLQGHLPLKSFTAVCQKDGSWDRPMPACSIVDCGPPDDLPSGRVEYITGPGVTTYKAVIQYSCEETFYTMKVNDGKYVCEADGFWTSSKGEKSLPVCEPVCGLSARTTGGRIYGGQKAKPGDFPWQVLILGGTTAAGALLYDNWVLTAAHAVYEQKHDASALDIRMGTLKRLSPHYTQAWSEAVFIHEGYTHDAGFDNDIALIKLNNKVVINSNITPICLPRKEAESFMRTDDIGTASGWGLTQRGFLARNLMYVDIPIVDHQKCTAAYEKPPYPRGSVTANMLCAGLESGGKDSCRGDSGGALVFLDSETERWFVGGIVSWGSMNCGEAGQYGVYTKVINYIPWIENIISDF
UniProt P11226, residues 21-248: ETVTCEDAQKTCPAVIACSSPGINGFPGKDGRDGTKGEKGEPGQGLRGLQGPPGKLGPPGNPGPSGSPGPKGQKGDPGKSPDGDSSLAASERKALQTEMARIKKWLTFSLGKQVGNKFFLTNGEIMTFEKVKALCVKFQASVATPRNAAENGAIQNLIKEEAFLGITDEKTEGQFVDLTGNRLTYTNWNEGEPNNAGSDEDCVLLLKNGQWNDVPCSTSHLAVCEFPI

Columns and labels:
[1] = molecular target: Flag-tagged full-length MASP-2 (human) (UniProt O00187); assay: co-IP
[2] = molecular target: Mannan-binding lectin (MBL) (UniProt P11226); assay: ELISA

Substance: Flag-tagged full-length MASP-2 (from UniProt O00187) (enzyme)
- binding [1]: binds

Substance: Purified recombinant MASP-2 (pET22b-MASP-2, renatured) (from UniProt O00187) (enzyme)
- binding [2]: binds
